Experimental data reported in patent US5891848A, “Peptide fragments” (Nippon Zoki Pharmaceutical Co., Ltd., priority 1995, dated 1999).
At least one peptide structure holds a part that was inferred or is arguable (an end, a ring closure or a residue). No end group written: not given here.

Tested on: neuronal death in the CA1 subfields of the hippocampus
Assay: Protective effect on cerebral neurons after ischemic insult (common carotid artery occlusion)
Type: in vivo, Wister-strain rat
Settings: continuous intracerebroventricular infusion 850 μg/ml; carotid occlusion 15 minutes; histology five days after ischemia; 4 rats/group
Procedure: Additionally, the effects of the peptides of the present invention on neuronal death in the CA1 subfields of the hippocampus were tested as follows:
The peptide fragment of the present invention, the 1-29 amino acid residue peptide fragment of bovine aFGF in which Cys, an amino acid at the 16-position, was substituted with Ala or the 1-29 amino acid residue peptide fragment of bovine aFGF in which Cys, an amino acid at the 16-position, was substituted with Ser, was administered by continuous intracerebroventricular infusion (850 μg/ml. respectively) into the lateral cerebral ventricles of Wister-strain rat (250-300 g. 4 rats/a group) and their common carotid arteries were occluded for 15 minutes to induce ischemic insult. Five days after ischemia, the rats were deeply anesthetized with sodium pentobarbital and transcardially perfused. Then, the brains were frozen and cut coronally in 20 μm sections by microtomy, and stained by Nissl bodies. The sections were examined by histological analysis. As a result of the analyses, the protecting effect of the peptide of the present invention on neuronal death in the CA1 subfields of the hippocampus was observed (Ala-substituted peptide; 3/4 rats, Ser-substituted peptide; 4/4 rats).

FNLPLGNYKKPKLLYSSNGGTFLRILPDG [Ser-substituted peptide]
protecting effect on neuronal death in the CA1 subfields of the hippocampus observed: 4/4
